The other results are listed elsewhere or left out.
What was measured:
Assay in all cases: log2 fold change, soluble protein after heating vs DMSO (PISA); higher = thermal stabilisation; K562 cells, 10 uM, 30 min; active = over 0.2 and 3.5 SD of the protein, either way, in both replicates (recomputed)
[1] = compound: CC1=C(C=C(C=C1)NC(=O)C2=CC(=CC=C2)C(C)(C)C#N)NC3=CC4=C(C=C3)N=CN(C4=O)C
Method in brief: (§1)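 Values are thermal stability changes relative to control samples and are taken from duplicates. They are stated as log2 fold changes. Before quantification by TMTpro 16plex LC-MS/MS with equalised channel sums, K562 cells at 2×10^6 cells/mL were treated with 10 μM compound for 30 min, heated in aliquots for 3 min across 48°C-58°C, pooled, extracted in PBS with 0.5% NP-40 at 4°C, and centrifuged at 21,000xg for 90 min to give the soluble supernatant.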

Chains of the proteins cited; added tags and fusions are not shown. Lines headed by an entry give the natural chain unless they say otherwise; changes in a name come on top.
UniProt Q9UNP9: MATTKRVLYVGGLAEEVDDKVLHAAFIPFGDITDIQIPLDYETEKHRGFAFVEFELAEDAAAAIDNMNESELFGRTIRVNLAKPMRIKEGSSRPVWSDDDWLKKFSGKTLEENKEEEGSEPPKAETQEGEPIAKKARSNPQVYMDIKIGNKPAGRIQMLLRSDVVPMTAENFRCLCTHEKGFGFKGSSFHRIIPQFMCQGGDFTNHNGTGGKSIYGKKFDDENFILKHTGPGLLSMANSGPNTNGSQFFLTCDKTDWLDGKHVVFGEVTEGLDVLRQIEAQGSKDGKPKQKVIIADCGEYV
UniProt O94903: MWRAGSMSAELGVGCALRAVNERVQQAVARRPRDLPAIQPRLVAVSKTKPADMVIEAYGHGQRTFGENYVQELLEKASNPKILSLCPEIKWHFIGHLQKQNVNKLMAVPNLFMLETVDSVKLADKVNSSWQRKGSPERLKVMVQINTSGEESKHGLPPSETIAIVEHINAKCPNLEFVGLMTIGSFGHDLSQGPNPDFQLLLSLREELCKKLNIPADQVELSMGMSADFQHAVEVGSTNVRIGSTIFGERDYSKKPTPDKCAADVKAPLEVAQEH
UniProt Q14651: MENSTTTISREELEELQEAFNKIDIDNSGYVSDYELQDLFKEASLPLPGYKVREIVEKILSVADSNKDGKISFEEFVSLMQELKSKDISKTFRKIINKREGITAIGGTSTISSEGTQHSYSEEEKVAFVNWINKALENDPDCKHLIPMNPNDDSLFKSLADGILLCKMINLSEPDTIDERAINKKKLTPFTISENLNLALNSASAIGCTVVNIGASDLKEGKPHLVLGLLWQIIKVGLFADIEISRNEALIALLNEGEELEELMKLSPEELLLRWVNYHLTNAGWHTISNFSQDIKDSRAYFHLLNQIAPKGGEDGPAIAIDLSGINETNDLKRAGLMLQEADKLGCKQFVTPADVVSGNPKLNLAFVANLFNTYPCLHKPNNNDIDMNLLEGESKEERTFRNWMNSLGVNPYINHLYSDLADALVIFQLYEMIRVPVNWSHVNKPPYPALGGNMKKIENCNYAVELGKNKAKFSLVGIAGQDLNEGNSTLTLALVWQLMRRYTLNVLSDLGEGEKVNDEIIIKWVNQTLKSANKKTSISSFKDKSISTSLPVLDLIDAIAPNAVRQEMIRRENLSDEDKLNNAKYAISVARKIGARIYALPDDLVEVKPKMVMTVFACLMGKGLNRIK
UniProt Q6P1K2: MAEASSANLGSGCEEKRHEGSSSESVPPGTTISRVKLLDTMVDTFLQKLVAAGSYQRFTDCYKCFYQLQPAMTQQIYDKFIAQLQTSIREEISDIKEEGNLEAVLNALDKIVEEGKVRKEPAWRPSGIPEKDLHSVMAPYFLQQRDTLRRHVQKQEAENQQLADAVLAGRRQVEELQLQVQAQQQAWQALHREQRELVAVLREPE
UniProt Q8N490: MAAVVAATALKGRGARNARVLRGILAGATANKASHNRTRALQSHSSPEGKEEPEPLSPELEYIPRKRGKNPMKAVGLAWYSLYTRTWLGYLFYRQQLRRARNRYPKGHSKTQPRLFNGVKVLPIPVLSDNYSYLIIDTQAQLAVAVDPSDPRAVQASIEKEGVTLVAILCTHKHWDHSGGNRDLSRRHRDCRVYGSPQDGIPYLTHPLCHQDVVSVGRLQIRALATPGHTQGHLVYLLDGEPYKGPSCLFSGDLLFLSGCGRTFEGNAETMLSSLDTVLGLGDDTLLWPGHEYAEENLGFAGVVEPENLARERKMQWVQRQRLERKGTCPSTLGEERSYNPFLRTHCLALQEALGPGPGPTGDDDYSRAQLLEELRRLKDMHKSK
UniProt Q06203, whole entry, looked up: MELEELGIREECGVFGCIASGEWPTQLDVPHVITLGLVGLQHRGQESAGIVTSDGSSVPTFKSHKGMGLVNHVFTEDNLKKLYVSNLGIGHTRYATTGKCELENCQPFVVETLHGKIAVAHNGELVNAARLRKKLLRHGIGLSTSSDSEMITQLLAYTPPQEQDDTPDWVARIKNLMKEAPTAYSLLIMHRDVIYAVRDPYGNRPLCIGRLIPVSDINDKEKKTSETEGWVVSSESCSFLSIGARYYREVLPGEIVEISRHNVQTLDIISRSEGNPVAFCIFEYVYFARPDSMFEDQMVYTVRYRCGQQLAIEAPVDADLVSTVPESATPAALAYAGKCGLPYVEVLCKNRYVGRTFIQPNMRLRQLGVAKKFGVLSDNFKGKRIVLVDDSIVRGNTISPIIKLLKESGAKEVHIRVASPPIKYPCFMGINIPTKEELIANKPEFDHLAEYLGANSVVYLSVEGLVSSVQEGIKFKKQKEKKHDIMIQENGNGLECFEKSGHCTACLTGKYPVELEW
UniProt Q8TCS8: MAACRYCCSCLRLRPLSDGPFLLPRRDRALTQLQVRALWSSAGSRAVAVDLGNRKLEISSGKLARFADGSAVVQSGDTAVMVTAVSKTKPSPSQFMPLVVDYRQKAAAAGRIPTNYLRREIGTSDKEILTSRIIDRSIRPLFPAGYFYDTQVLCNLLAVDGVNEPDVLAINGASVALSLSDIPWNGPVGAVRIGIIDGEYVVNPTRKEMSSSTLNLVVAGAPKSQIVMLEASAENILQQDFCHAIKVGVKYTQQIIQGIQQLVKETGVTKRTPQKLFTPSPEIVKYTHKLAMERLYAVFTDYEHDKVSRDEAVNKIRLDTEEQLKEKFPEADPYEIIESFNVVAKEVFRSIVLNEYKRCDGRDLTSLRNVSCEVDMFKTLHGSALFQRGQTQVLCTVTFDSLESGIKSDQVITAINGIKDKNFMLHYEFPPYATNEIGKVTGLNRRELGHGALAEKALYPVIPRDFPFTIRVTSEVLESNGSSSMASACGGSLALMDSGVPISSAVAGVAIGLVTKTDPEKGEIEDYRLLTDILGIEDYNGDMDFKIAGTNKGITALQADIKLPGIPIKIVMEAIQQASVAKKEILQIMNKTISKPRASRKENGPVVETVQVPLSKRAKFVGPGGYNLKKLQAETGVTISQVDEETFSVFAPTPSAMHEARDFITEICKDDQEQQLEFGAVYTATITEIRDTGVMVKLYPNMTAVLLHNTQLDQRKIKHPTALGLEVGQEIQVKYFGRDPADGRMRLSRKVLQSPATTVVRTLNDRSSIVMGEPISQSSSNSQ
UniProt Q9Y535: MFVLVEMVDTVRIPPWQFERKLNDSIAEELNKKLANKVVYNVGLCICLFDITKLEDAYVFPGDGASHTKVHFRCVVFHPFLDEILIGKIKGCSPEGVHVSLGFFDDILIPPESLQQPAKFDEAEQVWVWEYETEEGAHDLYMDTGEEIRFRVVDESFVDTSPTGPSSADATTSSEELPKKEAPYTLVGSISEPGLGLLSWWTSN
UniProt Q9H8W4: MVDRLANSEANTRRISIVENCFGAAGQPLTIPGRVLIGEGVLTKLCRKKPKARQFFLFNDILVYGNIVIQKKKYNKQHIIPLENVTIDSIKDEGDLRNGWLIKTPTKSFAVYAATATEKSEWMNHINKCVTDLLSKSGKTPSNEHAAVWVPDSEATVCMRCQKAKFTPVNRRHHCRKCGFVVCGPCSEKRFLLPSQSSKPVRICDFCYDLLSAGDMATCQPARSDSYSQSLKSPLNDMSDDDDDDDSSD
UniProt Q14181: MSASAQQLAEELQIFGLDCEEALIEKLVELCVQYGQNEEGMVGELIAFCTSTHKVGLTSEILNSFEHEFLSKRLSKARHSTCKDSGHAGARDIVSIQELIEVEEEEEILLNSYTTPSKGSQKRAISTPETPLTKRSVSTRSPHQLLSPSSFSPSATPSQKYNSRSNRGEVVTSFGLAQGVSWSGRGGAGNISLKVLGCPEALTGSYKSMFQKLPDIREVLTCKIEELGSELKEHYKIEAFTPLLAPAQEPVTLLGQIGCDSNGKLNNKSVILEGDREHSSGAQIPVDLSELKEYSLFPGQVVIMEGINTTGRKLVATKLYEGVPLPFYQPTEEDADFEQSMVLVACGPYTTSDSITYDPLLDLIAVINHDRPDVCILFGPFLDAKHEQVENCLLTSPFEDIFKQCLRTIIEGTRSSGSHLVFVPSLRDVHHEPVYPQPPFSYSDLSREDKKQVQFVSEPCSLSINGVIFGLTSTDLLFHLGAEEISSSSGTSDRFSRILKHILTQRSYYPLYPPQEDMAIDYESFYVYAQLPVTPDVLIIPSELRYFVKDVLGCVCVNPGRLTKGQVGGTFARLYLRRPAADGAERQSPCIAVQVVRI
UniProt Q7Z4H8: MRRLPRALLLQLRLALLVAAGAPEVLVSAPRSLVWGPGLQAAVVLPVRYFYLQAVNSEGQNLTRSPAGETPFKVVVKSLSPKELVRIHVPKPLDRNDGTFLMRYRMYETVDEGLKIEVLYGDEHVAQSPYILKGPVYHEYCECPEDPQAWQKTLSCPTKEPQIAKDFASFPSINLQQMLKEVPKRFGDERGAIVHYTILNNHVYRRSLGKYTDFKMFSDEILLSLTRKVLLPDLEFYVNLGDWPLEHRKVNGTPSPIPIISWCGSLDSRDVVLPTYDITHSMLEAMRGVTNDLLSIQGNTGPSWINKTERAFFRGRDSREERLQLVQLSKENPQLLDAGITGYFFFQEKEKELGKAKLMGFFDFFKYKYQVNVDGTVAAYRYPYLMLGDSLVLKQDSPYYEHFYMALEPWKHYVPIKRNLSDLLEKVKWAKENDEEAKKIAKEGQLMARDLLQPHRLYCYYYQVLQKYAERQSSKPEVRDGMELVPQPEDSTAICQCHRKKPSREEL
UniProt Q9UIW2: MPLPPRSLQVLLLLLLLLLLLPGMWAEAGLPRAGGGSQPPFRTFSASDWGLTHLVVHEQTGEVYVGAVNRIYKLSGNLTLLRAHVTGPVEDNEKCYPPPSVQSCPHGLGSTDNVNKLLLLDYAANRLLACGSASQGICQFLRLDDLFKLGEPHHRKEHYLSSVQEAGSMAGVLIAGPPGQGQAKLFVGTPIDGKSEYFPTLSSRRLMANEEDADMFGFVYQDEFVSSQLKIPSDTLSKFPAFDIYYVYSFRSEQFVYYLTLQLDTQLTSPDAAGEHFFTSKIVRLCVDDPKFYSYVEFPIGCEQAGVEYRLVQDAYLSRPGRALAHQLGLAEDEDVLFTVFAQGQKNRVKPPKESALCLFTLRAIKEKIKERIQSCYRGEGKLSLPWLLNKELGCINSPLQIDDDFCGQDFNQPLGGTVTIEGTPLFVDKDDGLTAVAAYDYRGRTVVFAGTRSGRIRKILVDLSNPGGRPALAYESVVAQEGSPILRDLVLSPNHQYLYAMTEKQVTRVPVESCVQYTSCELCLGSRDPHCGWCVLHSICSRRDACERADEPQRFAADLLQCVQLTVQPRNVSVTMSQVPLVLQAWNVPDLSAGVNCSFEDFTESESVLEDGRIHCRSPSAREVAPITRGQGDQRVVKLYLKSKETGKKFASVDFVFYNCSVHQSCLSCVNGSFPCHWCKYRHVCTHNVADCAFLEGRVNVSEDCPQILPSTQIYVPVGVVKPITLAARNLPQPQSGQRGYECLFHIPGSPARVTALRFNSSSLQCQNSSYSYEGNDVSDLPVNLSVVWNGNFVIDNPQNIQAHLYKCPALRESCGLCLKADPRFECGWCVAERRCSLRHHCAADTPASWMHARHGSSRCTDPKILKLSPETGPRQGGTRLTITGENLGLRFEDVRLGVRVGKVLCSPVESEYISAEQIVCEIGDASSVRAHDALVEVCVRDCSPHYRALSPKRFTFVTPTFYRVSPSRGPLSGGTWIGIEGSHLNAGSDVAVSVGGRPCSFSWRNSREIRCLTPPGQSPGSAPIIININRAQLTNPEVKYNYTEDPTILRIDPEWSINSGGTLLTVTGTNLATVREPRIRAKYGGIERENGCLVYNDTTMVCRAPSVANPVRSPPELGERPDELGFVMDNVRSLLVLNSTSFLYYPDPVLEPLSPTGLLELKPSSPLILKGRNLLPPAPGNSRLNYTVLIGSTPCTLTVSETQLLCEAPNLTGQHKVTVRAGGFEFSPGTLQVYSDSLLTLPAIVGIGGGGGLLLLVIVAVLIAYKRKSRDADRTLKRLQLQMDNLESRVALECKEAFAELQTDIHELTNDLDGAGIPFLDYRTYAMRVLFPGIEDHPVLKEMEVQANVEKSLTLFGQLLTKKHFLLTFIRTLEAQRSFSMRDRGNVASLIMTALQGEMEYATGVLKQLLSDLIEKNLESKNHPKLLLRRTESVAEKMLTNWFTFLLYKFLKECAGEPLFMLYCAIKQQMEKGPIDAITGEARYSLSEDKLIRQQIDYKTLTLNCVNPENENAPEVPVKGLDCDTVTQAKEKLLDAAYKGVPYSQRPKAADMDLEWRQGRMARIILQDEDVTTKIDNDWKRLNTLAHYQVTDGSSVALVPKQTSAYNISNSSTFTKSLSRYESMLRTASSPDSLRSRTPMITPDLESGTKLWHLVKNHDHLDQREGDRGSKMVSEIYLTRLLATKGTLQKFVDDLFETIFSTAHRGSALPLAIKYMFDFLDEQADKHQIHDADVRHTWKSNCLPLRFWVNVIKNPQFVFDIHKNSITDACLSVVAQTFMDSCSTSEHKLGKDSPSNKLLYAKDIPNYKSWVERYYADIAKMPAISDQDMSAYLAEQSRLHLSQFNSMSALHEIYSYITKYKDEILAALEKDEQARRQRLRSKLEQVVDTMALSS

[2] = compound: CC1=C(C=C(C=C1)NC(=O)C2=CC(=CC=C2)N(C)C)NC(=O)C3=CC=C(C=C3)O
Method in brief: as §1

[3] = compound: CC1=CC=C(C=C1)SC2=C3C=C(SC3=CN=C2)C(=O)N
Method in brief: as §1

[4] = compound: CC1=NC(=CC=C1)C2=C(N=C(N2)C(C)(C)C)C3=CC4=NC=CN=C4C=C3
Method in brief: as §1

[5] = compound: CCCCN(Cc1ccc(C(=O)NO)cc1)C(=O)Nc1ccccc1 [Nexturastat A]
Method in brief: as §1

[6] = compound: CCCS(=O)(=O)Nc1ccc(F)c(C(=O)c2c[nH]c3ncc(-c4ccc(Cl)cc4)cc23)c1F [vemurafenib]
Method in brief: as §1

[7] = compound: CCCS(=O)(=O)Nc1ccc(F)c(C(=O)c2c[nH]c3ncc(Cl)cc23)c1F
Method in brief: as §1

[8] = compound: CCCc1cc(C)[nH]c(=O)c1CNC(=O)c1cc(-c2ccnc(N3CCN(C)CC3)c2)cc2c1cnn2C(C)C
Method in brief: as §1

[9] = compound: CCN(CC)Cc1ccc2cc(COC(=O)Nc3ccc(C(=O)NO)cc3)ccc2c1 [givinostat]
Method in brief: as §1

[10] = compound: CCN(CCCOc1ccc2c(Nc3cc(CC(=O)Nc4cccc(F)c4)[nH]n3)ncnc2c1)CCOP(=O)(O)O [barasertib]
Method in brief: as §1

Measured: log2 fold change

POLR3D (UniProt P05423)
inactive: [1] -0.078 | [2] 0.014 | [3] -0.01 | [4] -0.023 | [5] 0.153 | [6] 0.03 | [7] 0.055 | [8] 0.104 | [9] 0.065 | [10] 0.098

PPIE (UniProt Q9UNP9)
inactive: [1] -0.041 | [2] -0.036 | [3] -0.015 | [4] -0.025 | [5] 0.024 | [6] -0.017 | [7] -0.029 | [8] 0.016 | [9] 0.007 | [10] 0.047

PLPBP (UniProt O94903)
inactive: [1] 0.207 | [2] 0.001 | [3] 0.088 | [4] 0.044 | [5] 0.007 | [6] 0.038 | [7] 0.029 | [8] 0.011 | [9] 0.048 | [10] 0.027

PLS1 (UniProt Q14651)
inactive: [1] 0.017 | [2] -0.023 | [3] 0.011 | [4] 0.021 | [5] -0.029 | [6] 0.035 | [7] 0.051 | [8] -0.002 | [9] 0.02 | [10] -0.008

POSTN (UniProt Q15063)
inactive: [1] -0.129 | [2] 0.063 | [3] 0.074 | [4] 0.163 | [5] -0.002 | [6] 0.163 | [7] 0.008 | [8] -0.273 | [9] -0.083 | [10] 0.069

PMF1 (UniProt Q6P1K2)
inactive: [1] -0.009 | [2] 0.036 | [3] 0.011 | [4] 0.087 | [5] 0.041 | [6] 0.072 | [7] 0.198 | [8] -0.094 | [9] -0.026 | [10] -0.018

PNKD isoform 3 (UniProt Q8N490)
inactive: [1] -0.025 | [2] 0.021 | [3] 0.13 | [4] -0.016 | [5] 0.15 | [6] -0.007 | [7] 0.032 | [8] -0.05 | [9] 0.135 | [10] -0.067

PLXNB2 (UniProt O15031)
inactive: [1] -0.013 | [2] 0.021 | [3] 0.014 | [4] -0.047 | [5] -0.011 | [6] 0.059 | [7] -0.004 | [8] 0.053 | [9] 0.042 | [10] 0.084

PPAN isoform 3 (UniProt Q9NQ55)
inactive: [1] -0.006 | [2] 0 | [3] -0.125 | [4] -0.102 | [5] 0.264 | [6] -0.198 | [7] -0.178 | [8] -0.146 | [9] 0.179 | [10] -0.02

POLD1 (UniProt P28340)
inactive: [1] -0.083 | [2] -0.028 | [3] 0.018 | [4] 0.022 | [5] 0.02 | [6] 0.033 | [7] 0.071 | [8] 0.006 | [9] 0.021 | [10] 0.005

PNPLA2 (UniProt Q96AD5)
inactive: [1] 0.009 | [2] -0.017 | [3] -0.003 | [4] 0.008 | [5] -0.021 | [6] -0.017 | [7] 0.053 | [8] 0.026 | [9] 0.036 | [10] -0.092

POLDIP2 (UniProt Q9Y2S7)
inactive: [1] 0.007 | [2] -0.001 | [3] 0.033 | [4] 0.004 | [5] 0.003 | [6] 0.035 | [7] 0.027 | [8] -0.033 | [9] 0.034 | [10] 0.026

POLR2D (UniProt O15514)
inactive: [1] -0.022 | [2] -0.005 | [3] 0.002 | [4] 0.004 | [5] 0.027 | [6] 0.046 | [7] -0.006 | [8] -0.014 | [9] -0.267 | [10] -0.031

PPAT (UniProt Q06203)
inactive: [1] -0.015 | [2] -0.01 | [3] -0.024 | [4] 0.007 | [5] -0.041 | [6] -0.015 | [7] -0.015 | [8] 0.031 | [9] -0.015 | [10] -0.01

POLR2A (UniProt P24928)
inactive: [1] -0.009 | [2] -0.049 | [3] 0.064 | [4] 0.018 | [5] 0.001 | [6] 0.002 | [7] 0.071 | [8] -0.023 | [9] -0.024 | [10] 0.024

POLR2G (UniProt P62487)
inactive: [1] 0.025 | [2] -0.033 | [3] 0.059 | [4] 0.057 | [5] -0.015 | [6] -0.022 | [7] 0.009 | [8] -0.038 | [9] -0.094 | [10] -0.019

PNPT1 (UniProt Q8TCS8)
inactive: [1] 0.02 | [2] -0.114 | [3] 0.031 | [4] 0.041 | [5] -0.034 | [6] 0.055 | [7] 0.088 | [8] 0.034 | [9] 0.047 | [10] 0.051

PPIL2 (UniProt Q13356)
inactive: [1] 0.005 | [2] -0.084 | [3] 0.04 | [4] 0.023 | [5] -0.059 | [6] 0.113 | [7] 0.123 | [8] 0.016 | [9] 0.123 | [10] 0.073

POLR3H (UniProt Q9Y535)
inactive: [1] -0.074 | [2] -0.037 | [3] 0.068 | [4] -0.032 | [5] -0.101 | [6] 0.032 | [7] -0.011 | [8] 0.033 | [9] 0.109 | [10] 0.06

PPM1B (UniProt O75688)
inactive: [1] 0.016 | [2] -0.021 | [3] 0 | [4] -0.001 | [5] -0.015 | [6] 0.037 | [7] -0.01 | [8] -0.037 | [9] -0.025 | [10] 0.007

PPID (UniProt Q08752)
inactive: [1] 0.011 | [2] -0.047 | [3] 0.091 | [4] 0.005 | [5] 0.008 | [6] 0.097 | [7] 0.105 | [8] 0.104 | [9] 0.122 | [10] 0.057

POLR2K (UniProt P53803)
inactive: [1] -0.036 | [2] 0.065 | [3] 0.056 | [4] 0.024 | [5] -0.162 | [6] -0.001 | [7] -0.024 | [8] 0.075 | [9] -0.137 | [10] 0.023

PNKD isoform 2 (UniProt Q8N490)
inactive: [1] -0.067 | [2] -0.011 | [3] -0.044 | [4] -0.027 | [5] 0.031 | [6] 0.036 | [7] -0.029 | [8] -0.022 | [9] -0.033 | [10] 0.041

PLEKHF2 (UniProt Q9H8W4)
inactive: [1] 0.002 | [2] -0.007 | [3] 0.063 | [4] 0.075 | [5] -0.017 | [6] -0.073 | [7] 0.043 | [8] 0.056 | [9] 0.036 | [10] 0.044

POLA2 (UniProt Q14181)
inactive: [1] 0.073 | [2] 0.044 | [3] -0.037 | [4] 0.061 | [5] -0.011 | [6] 0.034 | [7] 0.048 | [8] -0.02 | [9] 0.021 | [10] 0.021

POLR1C (UniProt O15160)
inactive: [1] -0.004 | [2] 0.052 | [3] -0.03 | [4] -0.048 | [5] 0.18 | [6] 0 | [7] 0.12 | [8] 0.064 | [9] 0.09 | [10] 0.031

PON2 (UniProt Q15165)
inactive: [1] 0.036 | [2] -0.004 | [3] 0.043 | [4] -0.032 | [5] 0.036 | [6] 0.012 | [7] -0.018 | [8] -0.026 | [9] -0.017 | [10] -0.003

POGLUT3 (UniProt Q7Z4H8)
inactive: [1] 0.022 | [2] 0.05 | [3] -0.018 | [4] 0.037 | [5] -0.003 | [6] -0.013 | [7] -0.062 | [8] 0.033 | [9] -0.053 | [10] -0.033

PLXNA1 (UniProt Q9UIW2)
inactive: [1] 0.006 | [2] -0.006 | [3] -0.039 | [4] 0.001 | [5] -0.089 | [6] -0.014 | [7] -0.015 | [8] -0.055 | [9] -0.014 | [10] -0.022

PPIP5K2 (UniProt O43314)
inactive: [1] 0.01 | [2] 0.014 | [3] 0.013 | [4] 0.032 | [5] -0.034 | [6] -0.006 | [7] -0.006 | [8] -0.012 | [9] -0.048 | [10] 0.014

Reprinted from above (2 entries):
PON2 (UniProt Q15165)
inactive: [1] 0.036 | [2] -0.004 | [3] 0.043 | [4] -0.032 | [5] 0.036 | [6] 0.012 | [7] -0.018 | [8] -0.026 | [9] -0.017 | [10] -0.003

POGLUT3 (UniProt Q7Z4H8)
inactive: [1] 0.022 | [2] 0.05 | [3] -0.018 | [4] 0.037 | [5] -0.003 | [6] -0.013 | [7] -0.062 | [8] 0.033 | [9] -0.053 | [10] -0.033
